# Changes are numbered by the printed parent chain. No constants are given. Whether binding was seen depends on the method and setting. Binding seen in cells or lysates may run through a third protein. Some results given as binding are weak or reduced against the parent protein; the word gives no strength. Sequences can lack the tags named with a protein.
# Amino acid sequences for entries named in this document (tags omitted).
# UniProt O61380: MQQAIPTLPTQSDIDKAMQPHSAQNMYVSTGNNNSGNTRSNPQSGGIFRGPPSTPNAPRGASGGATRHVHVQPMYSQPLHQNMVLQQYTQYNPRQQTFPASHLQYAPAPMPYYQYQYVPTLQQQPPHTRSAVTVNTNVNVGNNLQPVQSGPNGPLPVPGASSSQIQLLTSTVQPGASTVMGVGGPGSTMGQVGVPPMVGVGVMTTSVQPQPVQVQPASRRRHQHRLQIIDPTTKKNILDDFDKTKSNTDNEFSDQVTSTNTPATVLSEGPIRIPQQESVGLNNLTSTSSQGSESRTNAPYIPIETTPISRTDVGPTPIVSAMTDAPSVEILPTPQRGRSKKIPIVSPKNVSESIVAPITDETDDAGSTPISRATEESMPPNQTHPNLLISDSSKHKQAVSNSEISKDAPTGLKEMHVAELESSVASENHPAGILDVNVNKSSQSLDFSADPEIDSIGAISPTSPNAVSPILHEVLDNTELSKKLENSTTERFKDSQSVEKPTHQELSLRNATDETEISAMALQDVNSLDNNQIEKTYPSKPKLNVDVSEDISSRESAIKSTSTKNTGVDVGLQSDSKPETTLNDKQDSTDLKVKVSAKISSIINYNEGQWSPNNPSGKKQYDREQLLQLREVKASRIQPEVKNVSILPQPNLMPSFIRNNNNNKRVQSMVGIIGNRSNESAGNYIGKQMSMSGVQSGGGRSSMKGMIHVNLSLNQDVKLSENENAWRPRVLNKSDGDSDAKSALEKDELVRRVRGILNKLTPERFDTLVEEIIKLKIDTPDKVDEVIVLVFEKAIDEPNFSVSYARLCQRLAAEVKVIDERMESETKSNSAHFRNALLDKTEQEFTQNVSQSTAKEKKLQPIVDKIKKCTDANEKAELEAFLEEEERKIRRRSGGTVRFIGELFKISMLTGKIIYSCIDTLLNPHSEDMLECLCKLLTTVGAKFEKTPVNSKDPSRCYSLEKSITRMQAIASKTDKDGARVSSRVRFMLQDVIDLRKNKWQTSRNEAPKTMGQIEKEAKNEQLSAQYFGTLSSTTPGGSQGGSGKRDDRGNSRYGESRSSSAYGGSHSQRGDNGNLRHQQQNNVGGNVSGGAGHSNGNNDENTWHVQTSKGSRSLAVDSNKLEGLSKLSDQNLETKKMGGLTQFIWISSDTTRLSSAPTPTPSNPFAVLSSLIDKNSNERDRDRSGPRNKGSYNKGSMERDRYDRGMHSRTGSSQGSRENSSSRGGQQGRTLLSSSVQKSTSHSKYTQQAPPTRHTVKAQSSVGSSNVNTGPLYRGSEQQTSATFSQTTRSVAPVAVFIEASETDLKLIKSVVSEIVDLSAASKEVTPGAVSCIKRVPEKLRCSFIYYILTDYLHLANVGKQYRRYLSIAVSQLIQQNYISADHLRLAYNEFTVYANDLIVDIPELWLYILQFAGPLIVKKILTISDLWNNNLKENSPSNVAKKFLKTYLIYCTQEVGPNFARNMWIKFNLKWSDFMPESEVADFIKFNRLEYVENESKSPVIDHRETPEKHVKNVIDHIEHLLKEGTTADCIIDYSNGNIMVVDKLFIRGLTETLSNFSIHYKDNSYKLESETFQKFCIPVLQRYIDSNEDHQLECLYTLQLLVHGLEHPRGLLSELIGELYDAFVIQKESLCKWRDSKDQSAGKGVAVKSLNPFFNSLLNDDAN
# How the values were obtained:
# [1] = target: T1, HA-eIF4E (WT) (Drosophila melanogaster) (UniProt P48598); assay: co-IP; S2 cell lysates; HA-eIF4E (WT or mutated) with GFP-tagged full-length 4E-BPs and endogenous eIF4G; western blot
# T1 sequence: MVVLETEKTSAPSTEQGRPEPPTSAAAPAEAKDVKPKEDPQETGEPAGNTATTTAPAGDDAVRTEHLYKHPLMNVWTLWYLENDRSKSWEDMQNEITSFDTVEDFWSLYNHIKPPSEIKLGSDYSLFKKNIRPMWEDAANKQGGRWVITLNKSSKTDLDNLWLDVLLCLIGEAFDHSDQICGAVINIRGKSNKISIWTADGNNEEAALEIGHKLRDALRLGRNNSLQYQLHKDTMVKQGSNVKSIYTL
# [2] = target: T2, HA-eIF4E II-AA (Drosophila melanogaster) (UniProt P48598); assay: as above
# T2 sequence: T1 sequence with I96A, I112A
substance,measurement,setting,value
endogenous eIF4G (S2 cells) (from UniProt O61380 1-1666),binding,[1],binds
same,binding,[2],binds
